# Measurements: patent US8283352B2, “Solubilization preparation” (Dainippon Sumitomo Pharma Co., Ltd., priority 2005, dated 2012)
# Where a name gives a salt, the structure may show the parent alone. At least one read-out could not be matched to a standard name with certainty.
# Test: Solubility of lurasidone or a free form thereof in additives (Table 1), visual check
# Assay type: physicochemical
# Details: only in case of using benzyl alcohol, N,N-dimethylacetamide, lactic acid or propylene glycol
# Experimental: Solid-type additives were studied in 10% aqueous solutions thereof and liquid-type ones were studied in 100% solutions thereof. Specifically, to 10% aqueous solution of solid-type additive or to 100% solution of liquid-type one was added lurasidone or a free form thereof so that a concentration thereof was 10 mg/mL, and the mixture was promoted to be dissolved by an operation such as stirring, heating or sonication. It was confirmed by visual check 30 minutes after the operation whether the mixture was perfectly dissolved. In case that the mixture was perfectly dissolved in a concentration of 10 mg/mL, another amount of lurasidone or a free form thereof was added to be evaluated.
smiles,measurement,value
"O=C1[C@@H]2[C@H]3CC[C@H](C3)[C@@H]2C(=O)N1C[C@@H]1CCCC[C@H]1CN1CCN(c2nsc3ccccc23)CC1 [Lurasidone, N-[4-[4-(1,2-benzisothiazol-3-yl)-1-piperazinyl]-(2R,3R)-2,3-tetramethylene-butyl]-(1′R,2′S,3′R,4′S)-2,3-bicyclo[2,2,1]heptanedicarboxyimide hydrochloride]",solubility improvement (in words),remarkably improved
